Data as given in PubChem BioAssay AID1259254 (NCATS, 2017)

Purpose: 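Genome-wide screen for genes that prevent DNA re-replication in cancer cells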 (primary screen)
System: human HCT116 colorectal cancer cells
Reagents: single siRNA against human genes
Duration: 3 days
Measured: 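Imaged Hoechst DNA stain sorts each cell into a cycle phase by DNA amount; per plate, G2 fraction set to 0% for non-targeting and 100% for GMNN siRNA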
Direction: G2 robust z-score and G2 cells, % of GMNN control: higher = more G2 cells, more excess DNA replication
Hit rule: 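Active siRNAs have a G2 robust z of 5 or more median absolute deviations over the median, which in these data means about 38% or higher of GMNN control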
This is a random part of about 59,000 reagents. About 1,550 of them (2.6%) count as active. 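G2 share is only a proxy for re-replication; each gene was hit by three separate siRNAs, and active genes were retested.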 Reagents against one gene are numbered here. Not all columns of the deposit are shown. Not stated in the record: the amount of reagent.

How did the screen score NEDD1 (NEDD1 gamma-tubulin ring complex targeting factor) #1?
G2 robust z-score: 0.0621; G2 cells, % of GMNN control: 3.4; activity call: inactive

Which result is listed for NEDD1 (NEDD1 gamma-tubulin ring complex targeting factor) #2?
G2 robust z-score: 1.28; G2 cells, % of GMNN control: 12; activity call: inactive

For NEDD1 (NEDD1 gamma-tubulin ring complex targeting factor) #3, what does the deposit list?
G2 robust z-score: 0.766; G2 cells, % of GMNN control: 8.36; activity call: inactive

For FUT7 (fucosyltransferase 7) #1, what was measured?
G2 robust z-score: -0.13; G2 cells, % of GMNN control: 2.05; activity call: inactive

What is on record for FUT7 (fucosyltransferase 7) #2?
G2 robust z-score: -1.03; G2 cells, % of GMNN control: -4.3; activity call: inactive

How did the screen score FUT7 (fucosyltransferase 7) #3?
G2 robust z-score: 3.33; G2 cells, % of GMNN control: 26.4; activity call: inactive

How did the screen score FNIP1 (folliculin interacting protein 1) #1?
G2 robust z-score: -0.671; G2 cells, % of GMNN control: -1.75; activity call: inactive

For FNIP1 (folliculin interacting protein 1) #2, how do the results read?
G2 robust z-score: -0.784; G2 cells, % of GMNN control: -2.55; activity call: inactive

What is on record for FNIP1 (folliculin interacting protein 1) #3?
G2 robust z-score: -0.422; G2 cells, % of GMNN control: -0.00135; activity call: inactive

With ESCO2 #1, what was measured?
G2 robust z-score: -0.592; G2 cells, % of GMNN control: -1.19; activity call: inactive

With ESCO2 #2, what does the deposit list?
G2 robust z-score: -0.18; G2 cells, % of GMNN control: 1.7; activity call: inactive

Which result is listed for ESCO2 #3?
G2 robust z-score: -0.579; G2 cells, % of GMNN control: -1.11; activity call: inactive

What did the screen give for TOM1L2 (target of myb1 like 2 membrane trafficking protein) #1?
G2 robust z-score: -0.871; G2 cells, % of GMNN control: -3.16; activity call: inactive

Which result is listed for TOM1L2 (target of myb1 like 2 membrane trafficking protein) #2?
G2 robust z-score: 1.24; G2 cells, % of GMNN control: 11.7; activity call: inactive

How did the screen score TOM1L2 (target of myb1 like 2 membrane trafficking protein) #3?
G2 robust z-score: -1; G2 cells, % of GMNN control: -4.07; activity call: inactive

What did the screen give for PGCKA1 (PDCD10 and GCKIII kinases associated 1) #1?
G2 robust z-score: -0.655; G2 cells, % of GMNN control: -1.64; activity call: inactive

What is on record for PGCKA1 (PDCD10 and GCKIII kinases associated 1) #2?
G2 robust z-score: 2.87; G2 cells, % of GMNN control: 23.1; activity call: inactive

What is on record for PGCKA1 (PDCD10 and GCKIII kinases associated 1) #3?
G2 robust z-score: 0.482; G2 cells, % of GMNN control: 6.36; activity call: inactive

5 of these entries in another layout.
gene knocked down | siRNA no. | G2 robust z-score | G2 cells, % of GMNN control | activity call
NEDD1 (NEDD1 gamma-tubulin ring complex targeting factor) | 3 | 0.766 | 8.36 | inactive
FUT7 (fucosyltransferase 7) | 1 | -0.13 | 2.05 | inactive
FUT7 (fucosyltransferase 7) | 2 | -1.03 | -4.3 | inactive
FUT7 (fucosyltransferase 7) | 3 | 3.33 | 26.4 | inactive
FNIP1 (folliculin interacting protein 1) | 1 | -0.671 | -1.75 | inactive

The results go on.
Which result is listed for RBFOX3 (RNA binding fox-1 homolog 3) #1?
G2 robust z-score: -0.752; G2 cells, % of GMNN control: -2.32; activity call: inactive

With RBFOX3 (RNA binding fox-1 homolog 3) #2, what does the deposit list?
G2 robust z-score: -0.46; G2 cells, % of GMNN control: -0.266; activity call: inactive

With RBFOX3 (RNA binding fox-1 homolog 3) #3, how do the results read?
G2 robust z-score: -0.702; G2 cells, % of GMNN control: -1.98; activity call: inactive

How did the screen score RBFOX3 (RNA binding fox-1 homolog 3) #4?
G2 robust z-score: 0.967; G2 cells, % of GMNN control: 9.77; activity call: inactive

Which result is listed for RBFOX3 (RNA binding fox-1 homolog 3) #5?
G2 robust z-score: 2.27; G2 cells, % of GMNN control: 19; activity call: inactive

For RBFOX3 (RNA binding fox-1 homolog 3) #6, how do the results read?
G2 robust z-score: 2.98; G2 cells, % of GMNN control: 23.9; activity call: inactive

With TSLIG3B (tRNA splicing ligase complex subunit 3B) #1, what was measured?
G2 robust z-score: -0.144; G2 cells, % of GMNN control: 1.95; activity call: inactive

What is on record for TSLIG3B (tRNA splicing ligase complex subunit 3B) #2?
G2 robust z-score: 1.08; G2 cells, % of GMNN control: 10.6; activity call: inactive

For TSLIG3B (tRNA splicing ligase complex subunit 3B) #3, what does the deposit list?
G2 robust z-score: 0.357; G2 cells, % of GMNN control: 5.48; activity call: inactive

For CD59 (CD59 molecule (CD59 blood group)) #1, what does the deposit list?
G2 robust z-score: 1.32; G2 cells, % of GMNN control: 12.2; activity call: inactive

For CD59 (CD59 molecule (CD59 blood group)) #2, what does the deposit list?
G2 robust z-score: 1.41; G2 cells, % of GMNN control: 12.9; activity call: inactive

With CD59 (CD59 molecule (CD59 blood group)) #3, how do the results read?
G2 robust z-score: 0.0584; G2 cells, % of GMNN control: 3.38; activity call: inactive
